Data taken from ChEMBL document CHEMBL3988442, “University of Dundee, Small-Polar-MMV Screening Library” (2021).

Amino acid sequences for entries named in this document (tags omitted).
UniProt P9WFT3, whole entry: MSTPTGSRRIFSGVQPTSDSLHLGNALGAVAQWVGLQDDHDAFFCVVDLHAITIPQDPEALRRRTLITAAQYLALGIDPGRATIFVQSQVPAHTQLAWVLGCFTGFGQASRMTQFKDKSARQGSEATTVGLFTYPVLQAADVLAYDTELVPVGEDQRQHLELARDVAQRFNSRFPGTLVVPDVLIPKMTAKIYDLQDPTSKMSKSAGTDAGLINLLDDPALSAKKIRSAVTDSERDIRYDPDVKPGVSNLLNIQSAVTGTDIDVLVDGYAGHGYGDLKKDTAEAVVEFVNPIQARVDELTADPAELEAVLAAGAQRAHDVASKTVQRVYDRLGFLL

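Enzyme assay of tryptophanyl-tRNA synthetase; the read-out is not stated. Target: Tryptophan-tRNA ligase, Mycobacterium tuberculosis (UniProt P9WFT3). Tested at 10 µM. Direction is not recorded; retested compounds ran higher, which suggests that high means inhibition. Size under these conditions: about 65,000 compounds, about 64 of them at 50% or above in at least one test.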

Results are given as percent effect. How 0% and 100% were set is not recorded. Most values in the screen are low, and negative values occur. The compounds are a random part of those screened.

| SMILES | effect |
|---|---|
| `CCOC(=O)CNC(=O)N1CCN(c2ncccn2)CC1` | -2.9 |
| `Cc1nc(NCC(O)CN2CCCCCC2)c2c(C)nn(C)c2n1` (configuration not stated) | 3.166 |
| `CC(C)c1nccn1CCC(=O)N1CCCCC1c1ccn[nH]1` (configuration not stated) | 0.1302 |
| `O=C(Cc1cccc(Cl)c1)Nc1cnccc1SCCCO` | -6.186 |
| `CNC(=O)[C@@]12CCO[C@@H]1CCN(S(=O)(=O)c1ccccc1F)C2` | 0.9856 |
| `COc1cc2c(cc1OC)S(=O)(=O)N(Cc1ccccc1)C2=O` | 3.922 |
| `CCN(Cc1nc2c(cnn2C)c(=O)[nH]1)c1ccc(F)cc1` | -5.367 |
| `Cc1nc(CCNC(=O)C(N)c2c(C)n[nH]c2C)sc1C` (configuration not stated) | 0.5376 |
| `CN(C)c1cc2c(nn1)CCN(C(=O)c1cc3c(s1)CCOC3)C2` | 1.564 |
| `NC(=O)CN1CC2(CCC1=O)CCN(C(=O)c1ccccc1F)CC2` | -1.91 |
| `CC(=O)N1CC[C@H]2OCC[C@@H](C(=O)N3CCCCO3)[C@@H]2C1` | 7.638 |
| `COc1ccc2c(c1)nc1n2[C@@H](CNCc2cnn(C)c2)COC1` | -7.756 |
| `Cc1cc(C)n(CC2CN(CC(=O)NC3(C#N)CCCC3)CCO2)n1` (configuration not stated) | -1.558 |
| `CNC(=O)[C@H]1C[C@H]2OCC[C@H]2N(Cc2ccc(C)o2)C1` | -2.095 |
| `COc1ccccc1S(=O)(=O)N1CCC2(CC1)OCCCC2O` (configuration not stated) | 2.016 |
| `Cc1noc(C)c1C1CCCN1CCC(=O)N1CCc2ccccc2C1` (configuration not stated) | 0.9091 |
| `Cc1cccc2nc(CN3CCC(N4CCN(C)C4=O)CC3)cn12` | 0.8163 |
| `O=C1NCC[C@]12CN(Cc1cccnc1)C[C@H]2c1ccccc1` | -4.351 |
| `O=C(c1cc(C2CC2)on1)N1CCC(Oc2ncccc2Br)CC1` | -0.6839 |
| `Cc1c(NC(=O)c2ncn[nH]2)cccc1C(=O)NC(C)(C)C` | -1.361 |
| `COCCCN1C(=O)CC[C@H]2CN(c3ccnc4ccccc34)CC[C@H]21` | -0.4341 |
| `Cc1cccc(C)c1OC1CN(C(=O)C2CCN(C(=O)N(C)C)CC2)C1` | 1.868 |
| `Cc1cc(N2CCC(O)CC2)nc(C)n1` | 2.213 |
| `Cc1nn(C)c2nc(N(C)CC3CCN(CC(C)C)C3)sc12` (configuration not stated) | 1.365 |
| `CC1CN(C(=O)NCCCn2cncn2)CCO1` (configuration not stated) | -2.358 |
| `Cn1cccc1C(=O)N1CCCCC1c1ccn2ccnc2n1` (configuration not stated) | 6.745 |
| `CCc1ocnc1C(=O)N1CCC(n2cc(-c3ccsc3)nn2)CC1` | -2.91 |
| `COc1cc(Oc2ncccc2C(F)(F)F)ccc1CN1CCCC1` | -5.933 |
| `Cc1ccc(C(=O)NCCCNS(C)(=O)=O)cc1-n1cccc1` | -1.377 |
| `CCN(CC)C(=O)[C@@H]1C[C@H](N)CN1C(=O)c1cc2c([nH]c1=O)CCC2` | -5.382 |
| `CC(=O)N1CCC(c2nnc3ccc(C(=O)NCC(C)C)cn23)C1` (configuration not stated) | -5.969 |
| `Cc1ncsc1CN1C[C@@H]2COC[C@]2(CNC(=O)c2ccccc2)C1` | 2.351 |
| `Cc1cc(F)ccc1N1CCCC(NC(=O)CCCn2ccnc2)C1` (configuration not stated) | -1.377 |
| `O=C(N1CCOCC1)[C@@]12CCO[C@@H]1CCN(Cc1ccccc1F)C2` | -6.633 |
| `Cc1ccc2c(n1)N(CC1CC1)CCN(C(=O)NC1CC1)C2` | 3.092 |
| `CN(C)C(CNC(=O)c1cccc(-n2cnnn2)c1)c1ccccc1Cl` (configuration not stated) | -3.92 |
| `O=C1NCC2=C1C(c1ccc(O)cc1)Nc1ccccc1N2` (configuration not stated) | -11.59 |
| `c1csc(CNc2ccccc2Cn2cncn2)c1` | 7.869 |
| `CN1CCN(C2CCN(CCCOc3ccc(F)cc3)CC2)C1=O` | 14.12 |
| `c1csc(CN2CCC3(CCCN3CC3CC3)CC2)n1` | 0.4933 |
| `O=S(=O)(c1ccc(F)cc1)N1CCN(CCCn2ccnc2)CC1` | -3.958 |
| `CCNC(=O)NC(c1ccc(C)cc1)c1cccc(S(C)(=O)=O)c1` (configuration not stated) | -4.464 |
| `CC(=O)N1CCN(Cc2ccsc2)CC2(CC(=O)N(C)C2)C1` (configuration not stated) | -3.814 |
| `CCCc1nc(N2CC[C@@H](c3ccc4c(c3)OCO4)[C@H](O)C2)no1` | -1.201 |
| `CCN(C)c1ccc(CNC(=O)c2cc(C(N)=O)cs2)cc1F` | 5.986 |
| `CC(C)C(=O)N1CCN(C(=O)N(C)C)CC2(CC(=O)N(C)C2)C1` (configuration not stated) | -0.9682 |
| `CN(C)CCOCC1CN(Cc2ccsc2)Cc2nnn(C)c21` (configuration not stated) | 9.891 |
| `Cc1noc(C(C)N2CCN(c3ncnc4sccc34)CC2)n1` (configuration not stated) | -3.909 |
| `Cc1cn2c(n1)CCC(NC(=O)c1ccc(CS(C)(=O)=O)cc1)C2` (configuration not stated) | 1.258 |
| `Cc1ccc(CS(=O)(=O)Cc2nc(N)nc(N(C)C)n2)cc1` | -9.875 |
| `CC(=O)N1CCC(NC(=O)N2CCCC2c2ccsc2)CC1` (configuration not stated) | 4.862 |
| `CC(=O)N1CCC(C(=O)Nc2nc(C3CC3)cs2)CC1` | -0.5482 |
| `COc1ccc(Cc2c(O)nc(SC)n(-c3ccccc3)c2=O)cc1` | -4.235 |
| `CC(C)NC(=O)C1CN(C(N)=O)Cc2ccnn2C1` (configuration not stated) | 0.1049 |
| `COc1cccc(CNC(=O)C(c2cccc(F)c2)N2CCOCC2)c1` (configuration not stated) | 2.436 |
| `CCCN1CCC(NC(=O)c2csc(C)c2-c2ccc(C)cc2)CC1` | -0.9332 |
| `Cc1ncnc2c1CCN(C(=O)c1ccnnc1)CC2` | 7.399 |
| `Cc1ccc(NC2CCCN(Cc3ccc(Cl)cc3)C2)nn1` (configuration not stated) | -7.742 |
| `Cc1cccc(-n2ncc3c2CCCC3NCc2cccc(O)c2)c1C` (configuration not stated) | 3.203 |
| `Cc1oncc1C(=O)N1CC2CC1(C(=O)N1CCCC1)C2` | 8.721 |
| `CCc1nc(NCCc2nc(C)c(C)s2)c2cnn(C)c2n1` | 0.768 |
| `CNC(=O)c1cn[nH]c1C1CCN(Cc2cccc(C)c2OC)C1` (configuration not stated) | -3.137 |
| `CCC(C)CS(=O)(=O)NCCc1csc(N2CCCC2)n1` (configuration not stated) | 0.6744 |
| `CSc1cc2c(cc1NC(=O)NCc1ccncc1)OCCO2` | 10.63 |
| `CN(C)S(=O)(=O)N1CC(c2ccnc(Nc3ccccn3)n2)C1` | 2.467 |
| `CC(C)c1nn(C)c(N2CCOCC2)c1CNCC(=O)N(C)C` | 4.974 |
| `CC1(C)CN(C(CNC2=NCCN2)c2ccc(Cl)cc2)CCO1` (configuration not stated) | -7.74 |
| `O=C(CN1CCOc2ccc(Cl)cc21)NCCCn1ccnc1` | -0.09911 |
| `CCn1ncc2c1CN(C(=O)c1cc(C)oc1C)CC2COC` (configuration not stated) | -1.904 |

Repeated from the top, 6 entries:

| SMILES | effect |
|---|---|
| `CCOC(=O)CNC(=O)N1CCN(c2ncccn2)CC1` | -2.9 |
| `Cc1nc(NCC(O)CN2CCCCCC2)c2c(C)nn(C)c2n1` (configuration not stated) | 3.166 |
| `CC(C)c1nccn1CCC(=O)N1CCCCC1c1ccn[nH]1` (configuration not stated) | 0.1302 |
| `O=C(Cc1cccc(Cl)c1)Nc1cnccc1SCCCO` | -6.186 |
| `CNC(=O)[C@@]12CCO[C@@H]1CCN(S(=O)(=O)c1ccccc1F)C2` | 0.9856 |
| `COc1cc2c(cc1OC)S(=O)(=O)N(Cc1ccccc1)C2=O` | 3.922 |